PubChem BioAssay AID1159578, Peter MacCallum Cancer Centre – 2015

Purpose: 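Knock-downs that alter how fast lymphatic endothelial cells migrate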 (primary screen)
System: human lymphatic endothelial cells
Reagent: siRNA pool against human genes, 40 nM
Timing: 48 h after transfection
Read-out: 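Cells stained with dye and imaged after a scratch; covered wound area and nuclei counted, duplicates averaged, migration set against mock wells and turned into a robust z-score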
Scale: migration robust z-score: higher = faster migration into the scratch; migration relative to mock: higher = more scratch area covered than mock; nuclei per well: higher = more cells in the well
Call rule: 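Pools averaging fewer than 3300 nuclei are never called; remaining pools count as changed when migration robust z lies outside -2 to 2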
Meaning of the calls: active = migration changed; inactive = no migration change, or too few cells
The deposit covers about 18,000 reagents; below is an unselected part. About 1,030 of all reagents (5.7%) count as active. 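Inactive calls also include pools with fewer than 3300 nuclei, whose migration was not assessed.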 The raw values are shown without normalisation. Entries without a mark were called inactive.

no.	Target gene	migration robust z-score	migration class with cell-count check	migration relative to mock	nuclei per well, duplicate mean
1	POLQ (DNA polymerase theta)	0.28	migration z between -2 and 2; enough cells	0.86	6242
2	GBP2 (guanylate binding protein 2)	-0.57	migration z between -2 and 2; enough cells	0.7	6178
3	SLC75A1	-0.39	migration z between -2 and 2; enough cells	0.78	4129
4	ARL13B (ARF like GTPase 13B)	-0.2	migration z between -2 and 2; enough cells	0.83	6056
5	IFNA4 (interferon alpha 4)	0.94	migration z between -2 and 2; enough cells	1.13	6050
6	SERP1 (stress associated endoplasmic reticulum protein 1)	2.95 (active)	migration z above 2; enough cells	1.65	5804
7	TRIM77 (tripartite motif containing 77)	0.34	migration z between -2 and 2; enough cells	0.87	6296
8	PDZD2 (PDZ domain containing 2)	-0.31	migration z between -2 and 2; enough cells	0.8	5374
9	FOXN2 (forkhead box N2)	-0.11	migration z between -2 and 2; enough cells	0.78	5889
10	CYB5D1 (cytochrome b5 domain containing 1)	-1.76	migration z between -2 and 2; enough cells	0.43	5708
11	ASIP (agouti signaling protein)	0.19	migration z between -2 and 2; enough cells	0.93	4842
12	ATP5F1D (ATP synthase F1 subunit delta)	-1.37	migration z between -2 and 2; enough cells	0.54	4574
13	STX17 (syntaxin 17)	0.62	migration z between -2 and 2; enough cells	1.05	5063
14	KIR3DS1	2.72 (active)	migration z above 2; enough cells	1.59	6250
15	GCFC2 (GC-rich sequence DNA-binding factor 2)	0.56	migration z between -2 and 2; enough cells	1.03	6596
16	TARP (TCR gamma alternate reading frame protein)	-0.89	migration z between -2 and 2; enough cells	0.66	5817
17	ROGDI (rogdi atypical leucine zipper)	1.89	migration z between -2 and 2; enough cells	1.38	5700
18	C1orf115 (chromosome 1 open reading frame 115)	-0.99	migration z between -2 and 2; enough cells	0.63	5329
19	UBB (ubiquitin B)	-9.15	under 3300 nuclei; migration not judged	-1.49	482
20	GOLPH3 (golgi phosphoprotein 3)	-1.94	migration z between -2 and 2; enough cells	0.38	3960
21	RALY (RALY heterogeneous nuclear ribonucleoprotein)	1.66	migration z between -2 and 2; enough cells	1.31	5781
22	SSX3 (SSX family member 3)	0	migration z between -2 and 2; enough cells	0.88	5277
23	KMT5A (lysine methyltransferase 5A)	1.4	migration z between -2 and 2; enough cells	1.08	5171
24	DCN (decorin)	-0.51	migration z between -2 and 2; enough cells	0.75	5604
25	RRM1 (ribonucleotide reductase catalytic subunit M1)	-1.63	migration z between -2 and 2; enough cells	0.49	4046
26	ING1 (inhibitor of growth family member 1)	-1.06	migration z between -2 and 2; enough cells	0.6	3504
27	NME4 (NME/NM23 nucleoside diphosphate kinase 4)	-1.04	migration z between -2 and 2; enough cells	0.6	5276
28	PRAMEF6 (PRAME family member 6)	-0.53	migration z between -2 and 2; enough cells	0.74	5040
29	CREB3 (cAMP responsive element binding protein 3)	-0.42	migration z between -2 and 2; enough cells	0.73	4616
30	PLCG2 (phospholipase C gamma 2)	-1.29	migration z between -2 and 2; enough cells	0.55	5124
31	UBC (ubiquitin C)	-3.62	under 3300 nuclei; migration not judged	-0.05	1051
32	CDKN3 (cyclin dependent kinase inhibitor 3)	0.86	migration z between -2 and 2; enough cells	0.97	5230
33	SPIN3 (spindlin family member 3)	-0.12	migration z between -2 and 2; enough cells	0.86	5878
34	GSTCD (glutathione S-transferase C-terminal domain containing)	2.11 (active)	migration z above 2; enough cells	1.44	6958
35	TMEM127 (transmembrane protein 127)	0.43	migration z between -2 and 2; enough cells	1	5270
36	LCE2B (late cornified envelope 2B)	0.38	migration z between -2 and 2; enough cells	0.98	5722
37	ARHGAP28 (Rho GTPase activating protein 28)	-1.37	migration z between -2 and 2; enough cells	0.53	6337
38	APOH (apolipoprotein H)	0.68	migration z between -2 and 2; enough cells	0.94	5840
39	SGCG (sarcoglycan gamma)	2.02 (active)	migration z above 2; enough cells	1.41	5991
40	DCAF12 (DDB1 and CUL4 associated factor 12)	-0.52	migration z between -2 and 2; enough cells	0.74	5434
41	TRIM16 (tripartite motif containing 16)	0.51	migration z between -2 and 2; enough cells	1.02	5793
42	IRF2 (interferon regulatory factor 2)	0.65	migration z between -2 and 2; enough cells	0.93	6768
43	DNAJC8 (DnaJ heat shock protein family (Hsp40) member C8)	0.04	migration z between -2 and 2; enough cells	0.9	5458
44	DYNC1I1 (dynein cytoplasmic 1 intermediate chain 1)	0.65	migration z between -2 and 2; enough cells	0.93	6333
45	CNN1 (calponin 1)	-0.66	migration z between -2 and 2; enough cells	0.72	5336
46	GNS (glucosamine (N-acetyl)-6-sulfatase)	-0.24	migration z between -2 and 2; enough cells	0.76	5682
47	TFAM (transcription factor A, mitochondrial)	-0.39	migration z between -2 and 2; enough cells	0.73	5661
48	MS4A4A (membrane spanning 4-domains A4A)	-2.07 (active)	migration z below -2; enough cells	0.34	4227
49	GPR31 (G protein-coupled receptor 31)	-0.86	migration z between -2 and 2; enough cells	0.64	4686
50	DEGS2 (delta 4-desaturase, sphingolipid 2)	1.76	migration z between -2 and 2; enough cells	1.15	5176
51	CDH18 (cadherin 18)	1.36	migration z between -2 and 2; enough cells	1.23	5622
52	KIR2DL4	3.19 (active)	migration z above 2; enough cells	1.71	5863
53	GDF10 (growth differentiation factor 10)	-0.57	migration z between -2 and 2; enough cells	0.7	5732
54	C9orf43 (chromosome 9 open reading frame 43)	0.99	migration z between -2 and 2; enough cells	1.14	7277
55	FBXO31 (F-box protein 31)	0.55	migration z between -2 and 2; enough cells	0.91	5468
56	DSPP (dentin sialophosphoprotein)	-0.87	migration z between -2 and 2; enough cells	0.66	3735
57	THAP9 (THAP domain containing 9)	0.64	migration z between -2 and 2; enough cells	1.05	6308

Part of the list above, reformatted.
| Target gene | migration robust z-score | migration class with cell-count check | migration relative to mock | nuclei per well, duplicate mean |
| --- | --- | --- | --- | --- |
| ING1 (inhibitor of growth family member 1) | -1.06 | migration z between -2 and 2; enough cells | 0.6 | 3504 |
| NME4 (NME/NM23 nucleoside diphosphate kinase 4) | -1.04 | migration z between -2 and 2; enough cells | 0.6 | 5276 |
| PRAMEF6 (PRAME family member 6) | -0.53 | migration z between -2 and 2; enough cells | 0.74 | 5040 |
